Measured values: PubChem BioAssay AID504467 (National Center for Advancing Translational Sciences (NCATS), 2011)
Screen size: about 330,000 compounds; about 7,700 (2.3%) were called active. The inconclusive results got no clear call from the source; some entries with a clear call stand among them for comparison. Calls follow the shape of the dose curve; as a rule, active = well fitted inhibition curve with a large enough effect; inconclusive = small, poorly fitted or top-dose-only effect, or effect the other way; inactive = flat fitted curve, though single readings scatter. A potency beside an inconclusive call is a rough fit, not a confirmed value.

Assay: qHTS screen for small molecules that inhibit ELG1-dependent DNA repair in human embryonic kidney (HEK293T) cells expressing luciferase-tagged ELG1; also: nearly all actives have a fitted effect of over 55% in size
Details: HEK293T ELG1-luciferase reporter, luminescence, 16 h, DNA damage induced by 5-fluorouridine; activity change, negative = inhibition: at 46.1 µM (top of the series)
How it was run: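 DMSO vehicle served as the neutral condition. Each well held 2,000 cells given 5-fluorouridine plus compound; after 16 hr at 37 °C/5% CO2, ONE-Glo was added and luciferase measured 30 min later.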
% is scaled to controls: 0 for no effect and ±100 for the full control effect; potency is read from the fitted curve at half-maximal effect.

Row | Compound | Potency | activity change, negative = inhibition
1 | Cn1c(=O)c2[nH]c(CN(Cc3ccccc3)Cc3ccccc3)nc2n(C)c1=O | active: 4.11 µM | 
2 | CCOC(=O)c1cccc(NS(=O)(=O)Cc2ccccc2)c1 |  | inactive: 18.7%
3 | CC(C)[C@H](CO)N(Cc1cccc(F)c1)c1nc(Nc2cccc(Cl)c2)c2ncn(C(C)C)c2n1 |  | inactive: 8.96%
4 | COc1cccc(C(=O)N2CCC(O)(c3cccnc3)CC2)c1 | inconclusive: 29.1 µM [inhibitor, single point] | 
5 | CN1CCNC(=O)C1CC(=O)NCCc1ccccc1F (stereo not given) | inconclusive: 20.6 µM [activator, single point] | 
6 | CNC(=O)c1cccc2nc3ccccc3nc12 | inconclusive: 23.1 µM [activator, partial curve] | 
7 | Cc1cc(N)c(NC2=CC(=O)CC(C)(C)C2)cc1C | inconclusive: 25.9 µM [activator, single point] | 
8 | COc1cccc(NC(=O)CCCNC(=O)Cn2cnc3sc(C)c(C)c3c2=O)c1 | inconclusive: 29.1 µM [inhibitor, single point] | 
9 | COc1ccc(/C=C/C(=O)NCCc2c[nH]c3ccccc23)cc1OC | inconclusive: 18.3 µM [inhibitor, partial curve] | 
10 | O=C(O)c1cccc(NC(=S)N/N=C/c2cccnc2)c1 | inconclusive: 23.1 µM [activator, single point] | 
11 | Cc1cc(N2CCN(Cc3cn(C)nc3-c3cccc(Cl)c3)CC2)cc(C)n1 | inconclusive: 14.6 µM [inhibitor, partial curve] | 
12 | Cc1ccc2nc(SCc3nc4ccccc4c(=O)[nH]3)[nH]c2c1 | inconclusive: 11.6 µM [activator, partial curve] | 
13 | Cc1onc(-c2c(F)cccc2Cl)c1C(=O)OCn1nnc2ccccc2c1=O | inconclusive: 18.4 µM [inhibitor, single point] | 
14 | CCOC(=O)Cc1csc(NC(=O)c2cccs2)n1 | inconclusive: 4.61 µM [activator, single point] | 
15 | COc1ccc(-n2c(-c3ccc(Br)cc3)c[n+]3c2SC(C)C3)cc1 (stereo not given) | active: 5.8 µM | 
16 | O=C(NCCCN1CCOCC1)c1coc2ccccc2c1=O | inconclusive: 29.1 µM [activator, single point] | 
17 | Cc1nonc1NC(=O)CSc1nc(C23CC4CC(CC(C4)C2)C3)nc2ccccc12 |  | inactive: 14.6%
18 | Clc1ccc(CO/N=C/c2c(-c3ccccc3)nc3n2CCS3)c(Cl)c1 |  | inactive: -2.78%
19 | Cc1ccc(S(=O)(=O)NNC(=O)C2Cc3c(ccc4ccccc34)O2)cc1 (stereo not given) |  | inactive: -6.36%
20 | CC1CC(C)(C)NC(=S)N1CC(=O)N1CCN(Cc2ccccc2)CC1 (stereo not given) |  | inactive: -12.7%
21 | CC1(C(=O)Nc2cccc3ccccc23)CC1(Br)Br (stereo not given) | inconclusive: 29.1 µM [activator, single point] | 
22 | CC(=O)Nc1nc(C)c(-c2csc(Nc3cccc(C(C)=O)c3)n2)s1 | active: 5.8 µM | 
23 | Cc1ccc(C(=S)N2CCN(Cc3ccccc3)CC2)s1 |  | inactive: 5.79%

Row | Compound | Potency | activity change, negative = inhibition
24 | Nc1cc(=O)[nH]c(SCC(=O)NCCC2=CCCCC2)n1 | inconclusive: 20.6 µM [activator, partial curve, poor fit] | 
25 | Fc1ccc(-n2c(-c3ccc4c(c3)OCO4)n[nH]c2=S)cc1Cl | inconclusive: 18.4 µM [activator, single point] | 
26 | Cc1ccc(-c2ccc(SCC(=O)NCC3CCCO3)nn2)cc1 (stereo not given) |  | inactive: 10.7%
27 | CC(OC(=O)[C@H](C)NC(=O)c1ccccc1Cl)C(=O)NCc1ccc2c(c1)OCO2 (stereo not given in full) |  | inactive: -1.54%
28 | C/C(=N\NC(=O)CNc1ccccc1Cl)C(C)(C)C | inconclusive: 14.6 µM [activator, single point] | 
29 | CC1CCN(C(=O)COC(=O)c2ccc(Br)o2)CC1 | inconclusive: 23.1 µM [activator, single point] | 
30 | Cc1ccc(NC(=O)COC(=O)c2ccc([N+](=O)[O-])o2)cc1S(=O)(=O)N1CCCCCC1 |  | inconclusive: 45.5% [activator]
31 | Cc1ccc(C)c(N2CCN(C(=O)Cn3ncc4c([nH]c5ccc(C)cc54)c3=O)CC2)c1 | inconclusive: 25.9 µM [activator, single point] | 
32 | Cc1ccc2cn[nH]c2c1NC(N)=S | inconclusive: 16.4 µM [activator, partial curve] | 
33 | C[C@H](CO)N1C[C@H](C)[C@@H](CN(C)C(=O)Nc2ccccc2)Oc2ccc(NC(=O)NC3CCCCC3)cc2C1=O | inconclusive: 18.3 µM [activator, single point] | 
34 | Cc1nc(-c2ccccc2)sc1-c1nc(-c2cccs2)ncc1S(=O)(=O)c1ccccc1 |  | inactive: 16.1%
35 | O=C(Nc1cccc(C(=O)N2CCN(c3ccccc3)CC2)c1)c1ccco1 | inconclusive: 16.4 µM [inhibitor, single point] | 
36 | COc1ccc(CN(C)C(=O)C2CC(=O)N(c3ccc4c(c3)OCCO4)C2)c(OC)c1 (stereo not given) | inconclusive: 20.6 µM [inhibitor, single point] | 
37 | CC12CCC(=O)N1C(C(=O)NCCN1C(=O)S/C(=C\c3ccc(F)cc3)C1=O)CS2 (stereo not given) | inconclusive: 29.1 µM [inhibitor, single point] | 
38 | CC(CN1c2ccccc2Sc2ccccc21)N(C)C (stereo not given) |  | inactive: 3.62%
39 | O=C(NCCOc1ccccc1Cl)c1cccc2c1C(=O)c1ccc(Cl)cc1S2(=O)=O |  | inactive: 4.02%
40 | CN(C)CCN(Cc1cccs1)S(=O)(=O)c1csc(C(N)=O)c1 | inconclusive: 23.1 µM [activator, partial curve, poor fit] | 
41 | CCc1cc2c(=O)n(Cc3ccco3)c(SCC(=O)NC3CCS(=O)(=O)C3)nc2s1 (stereo not given) |  | inactive: -0.902%
42 | Cc1cc(/C=C2/NC(=O)N(c3ccccc3)C2=O)c(C)n1-c1cccnc1 | inconclusive: 2.59 µM [activator, full curve] | 
43 | C/C(=N\OCC(=O)Nc1ccc(F)c(F)c1F)c1cc2ccccc2o1 | inconclusive: 29.1 µM [inhibitor, single point] | 
44 | COC(=O)c1ccc(C2Nc3ccc(/C(C)=N/NC(=O)C(OC)c4ccccc4)cc3C3C=CCC32)cc1 (stereo not given) |  | inactive: -12.3%
45 | COc1cccc(NC(=O)COC(=O)CCSc2ccccc2)c1 | inconclusive: 20.6 µM [activator, partial curve, poor fit] | 

Among those listed so far, three contain bromine.
Row | Compound | Potency | activity change, negative = inhibition
15 | COc1ccc(-n2c(-c3ccc(Br)cc3)c[n+]3c2SC(C)C3)cc1 (stereo not given) | active: 5.8 µM | 
21 | CC1(C(=O)Nc2cccc3ccccc23)CC1(Br)Br (stereo not given) | inconclusive: 29.1 µM [activator, single point] | 
29 | CC1CCN(C(=O)COC(=O)c2ccc(Br)o2)CC1 | inconclusive: 23.1 µM [activator, single point] | 
